In the supplement of paper PMC10849652:
The list shows a part of the results.

Amino acid sequences for entries named in this document (tags omitted). A change or cut given only in a name is not applied to a line headed by its entry.
UniProt Q9NS86: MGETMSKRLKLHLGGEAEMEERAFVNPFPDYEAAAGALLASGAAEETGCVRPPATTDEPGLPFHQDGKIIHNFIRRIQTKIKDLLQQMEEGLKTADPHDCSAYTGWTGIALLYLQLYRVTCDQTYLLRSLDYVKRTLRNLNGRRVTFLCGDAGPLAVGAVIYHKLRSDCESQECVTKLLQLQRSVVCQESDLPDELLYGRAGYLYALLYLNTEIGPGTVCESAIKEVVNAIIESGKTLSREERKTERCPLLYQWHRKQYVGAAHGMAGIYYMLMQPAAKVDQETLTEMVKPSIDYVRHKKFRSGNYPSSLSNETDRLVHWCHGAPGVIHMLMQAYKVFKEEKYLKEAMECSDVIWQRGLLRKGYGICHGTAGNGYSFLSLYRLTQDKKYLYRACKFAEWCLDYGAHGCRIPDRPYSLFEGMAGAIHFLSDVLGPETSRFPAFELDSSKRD
UniProt P50748: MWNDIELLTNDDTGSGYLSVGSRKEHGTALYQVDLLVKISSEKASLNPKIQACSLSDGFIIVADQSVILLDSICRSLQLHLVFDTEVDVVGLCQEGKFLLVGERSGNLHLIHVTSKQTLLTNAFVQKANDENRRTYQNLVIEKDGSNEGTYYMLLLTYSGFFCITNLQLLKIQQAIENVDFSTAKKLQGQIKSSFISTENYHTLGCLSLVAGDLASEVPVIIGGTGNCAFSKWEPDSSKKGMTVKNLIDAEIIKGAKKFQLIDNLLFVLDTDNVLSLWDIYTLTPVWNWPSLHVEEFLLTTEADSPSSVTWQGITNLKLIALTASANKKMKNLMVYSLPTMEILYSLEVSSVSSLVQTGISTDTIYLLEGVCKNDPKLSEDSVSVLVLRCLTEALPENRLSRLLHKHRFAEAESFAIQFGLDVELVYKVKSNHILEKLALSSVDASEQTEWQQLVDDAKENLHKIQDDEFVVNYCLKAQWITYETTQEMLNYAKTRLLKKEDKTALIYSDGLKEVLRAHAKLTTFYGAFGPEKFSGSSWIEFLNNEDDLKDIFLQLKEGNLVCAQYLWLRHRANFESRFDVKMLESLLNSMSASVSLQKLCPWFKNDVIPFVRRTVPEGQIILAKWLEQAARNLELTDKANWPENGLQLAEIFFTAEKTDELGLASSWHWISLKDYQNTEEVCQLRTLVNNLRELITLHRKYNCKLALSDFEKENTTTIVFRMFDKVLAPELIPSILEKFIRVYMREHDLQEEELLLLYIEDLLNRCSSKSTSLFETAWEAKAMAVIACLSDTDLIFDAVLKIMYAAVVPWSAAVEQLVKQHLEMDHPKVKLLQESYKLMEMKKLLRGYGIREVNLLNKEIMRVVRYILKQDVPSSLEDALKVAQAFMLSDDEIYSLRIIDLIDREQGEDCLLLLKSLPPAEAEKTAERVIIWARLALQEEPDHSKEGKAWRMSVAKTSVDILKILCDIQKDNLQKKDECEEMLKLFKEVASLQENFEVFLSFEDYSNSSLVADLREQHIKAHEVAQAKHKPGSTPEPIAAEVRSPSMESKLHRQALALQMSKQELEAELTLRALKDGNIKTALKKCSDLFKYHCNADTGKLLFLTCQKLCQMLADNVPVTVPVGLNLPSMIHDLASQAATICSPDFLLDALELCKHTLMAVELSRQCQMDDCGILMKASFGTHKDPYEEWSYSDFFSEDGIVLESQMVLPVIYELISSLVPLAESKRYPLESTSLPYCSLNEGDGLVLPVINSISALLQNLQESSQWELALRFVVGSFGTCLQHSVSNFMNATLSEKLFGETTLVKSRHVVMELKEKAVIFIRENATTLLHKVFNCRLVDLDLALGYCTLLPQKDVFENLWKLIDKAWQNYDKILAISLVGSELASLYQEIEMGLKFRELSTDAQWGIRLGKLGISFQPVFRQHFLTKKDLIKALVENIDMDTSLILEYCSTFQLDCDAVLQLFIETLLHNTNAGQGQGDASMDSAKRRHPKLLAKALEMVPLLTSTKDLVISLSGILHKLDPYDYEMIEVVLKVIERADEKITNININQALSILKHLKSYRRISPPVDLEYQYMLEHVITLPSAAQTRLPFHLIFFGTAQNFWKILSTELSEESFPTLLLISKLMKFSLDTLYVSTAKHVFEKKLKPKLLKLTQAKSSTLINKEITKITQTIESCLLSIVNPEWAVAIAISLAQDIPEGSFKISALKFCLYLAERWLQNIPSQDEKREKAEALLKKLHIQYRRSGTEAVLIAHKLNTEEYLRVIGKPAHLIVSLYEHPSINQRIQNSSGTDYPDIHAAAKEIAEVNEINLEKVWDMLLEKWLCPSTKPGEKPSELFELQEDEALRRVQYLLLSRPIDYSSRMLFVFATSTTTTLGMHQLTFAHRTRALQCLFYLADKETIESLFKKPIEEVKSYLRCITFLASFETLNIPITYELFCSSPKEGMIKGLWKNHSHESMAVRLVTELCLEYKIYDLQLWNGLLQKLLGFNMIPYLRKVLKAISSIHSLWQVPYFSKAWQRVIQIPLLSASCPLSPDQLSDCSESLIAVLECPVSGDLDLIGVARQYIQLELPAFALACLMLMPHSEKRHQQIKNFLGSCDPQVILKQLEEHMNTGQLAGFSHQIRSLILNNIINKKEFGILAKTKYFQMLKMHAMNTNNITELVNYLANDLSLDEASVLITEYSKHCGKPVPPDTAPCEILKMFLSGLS
UniProt Q9Y2Q5, whole entry, looked up: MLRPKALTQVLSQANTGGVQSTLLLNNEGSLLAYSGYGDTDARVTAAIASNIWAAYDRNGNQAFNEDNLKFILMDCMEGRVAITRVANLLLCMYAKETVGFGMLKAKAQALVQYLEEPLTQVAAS
UniProt Q9Y448: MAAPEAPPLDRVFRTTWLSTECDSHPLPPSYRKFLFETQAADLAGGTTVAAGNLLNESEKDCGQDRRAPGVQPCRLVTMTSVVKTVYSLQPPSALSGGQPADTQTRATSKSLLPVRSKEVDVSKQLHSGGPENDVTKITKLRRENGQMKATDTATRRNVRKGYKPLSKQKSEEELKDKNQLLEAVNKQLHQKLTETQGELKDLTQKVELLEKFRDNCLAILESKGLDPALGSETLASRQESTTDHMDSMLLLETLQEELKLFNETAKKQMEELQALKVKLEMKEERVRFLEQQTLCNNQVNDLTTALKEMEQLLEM
UniProt O14782: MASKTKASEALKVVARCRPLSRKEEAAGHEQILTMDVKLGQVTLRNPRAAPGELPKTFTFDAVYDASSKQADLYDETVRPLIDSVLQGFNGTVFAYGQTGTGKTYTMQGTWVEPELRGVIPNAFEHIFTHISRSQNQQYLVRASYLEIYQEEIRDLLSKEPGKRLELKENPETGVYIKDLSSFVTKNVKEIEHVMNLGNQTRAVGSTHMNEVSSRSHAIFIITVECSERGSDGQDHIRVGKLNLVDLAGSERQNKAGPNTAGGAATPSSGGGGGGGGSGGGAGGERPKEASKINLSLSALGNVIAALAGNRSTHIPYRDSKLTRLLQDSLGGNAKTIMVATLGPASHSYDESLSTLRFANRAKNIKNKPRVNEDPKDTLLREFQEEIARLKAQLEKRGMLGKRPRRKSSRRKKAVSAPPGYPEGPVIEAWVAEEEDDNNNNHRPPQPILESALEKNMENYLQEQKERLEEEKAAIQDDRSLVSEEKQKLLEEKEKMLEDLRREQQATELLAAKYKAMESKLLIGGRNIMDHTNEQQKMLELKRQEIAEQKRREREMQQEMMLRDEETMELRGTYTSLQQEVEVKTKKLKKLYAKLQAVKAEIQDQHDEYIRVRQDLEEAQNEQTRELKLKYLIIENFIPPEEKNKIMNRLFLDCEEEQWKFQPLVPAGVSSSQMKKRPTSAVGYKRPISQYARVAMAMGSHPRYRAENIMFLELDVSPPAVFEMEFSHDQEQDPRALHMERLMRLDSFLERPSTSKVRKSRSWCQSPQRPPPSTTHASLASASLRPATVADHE
UniProt O75164: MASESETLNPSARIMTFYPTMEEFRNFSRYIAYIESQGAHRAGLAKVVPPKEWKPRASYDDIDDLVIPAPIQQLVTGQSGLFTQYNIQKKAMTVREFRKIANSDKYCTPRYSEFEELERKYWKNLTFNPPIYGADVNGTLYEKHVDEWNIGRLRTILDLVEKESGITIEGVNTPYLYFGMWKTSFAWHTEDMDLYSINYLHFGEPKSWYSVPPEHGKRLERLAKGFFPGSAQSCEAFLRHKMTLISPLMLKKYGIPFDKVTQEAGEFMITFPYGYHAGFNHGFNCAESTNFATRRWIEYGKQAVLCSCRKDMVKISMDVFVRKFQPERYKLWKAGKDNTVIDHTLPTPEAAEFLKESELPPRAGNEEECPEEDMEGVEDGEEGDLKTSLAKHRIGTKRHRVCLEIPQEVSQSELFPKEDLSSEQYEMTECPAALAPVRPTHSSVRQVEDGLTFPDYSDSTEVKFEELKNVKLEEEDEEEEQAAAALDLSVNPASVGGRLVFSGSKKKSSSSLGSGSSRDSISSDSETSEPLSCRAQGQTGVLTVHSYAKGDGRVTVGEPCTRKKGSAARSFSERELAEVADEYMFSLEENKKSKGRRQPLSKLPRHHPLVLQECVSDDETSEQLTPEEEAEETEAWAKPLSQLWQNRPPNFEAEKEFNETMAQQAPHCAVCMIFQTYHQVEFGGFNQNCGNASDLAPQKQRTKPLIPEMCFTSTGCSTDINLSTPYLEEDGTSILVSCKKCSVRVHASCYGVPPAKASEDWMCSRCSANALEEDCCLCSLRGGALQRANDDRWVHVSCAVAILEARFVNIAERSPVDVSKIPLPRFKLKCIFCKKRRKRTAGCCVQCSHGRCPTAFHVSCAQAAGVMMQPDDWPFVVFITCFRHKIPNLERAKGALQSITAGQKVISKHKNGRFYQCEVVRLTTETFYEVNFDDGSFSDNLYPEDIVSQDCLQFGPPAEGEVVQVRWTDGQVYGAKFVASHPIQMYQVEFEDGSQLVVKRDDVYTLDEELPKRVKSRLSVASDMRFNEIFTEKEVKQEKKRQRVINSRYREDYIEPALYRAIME
UniProt Q14657: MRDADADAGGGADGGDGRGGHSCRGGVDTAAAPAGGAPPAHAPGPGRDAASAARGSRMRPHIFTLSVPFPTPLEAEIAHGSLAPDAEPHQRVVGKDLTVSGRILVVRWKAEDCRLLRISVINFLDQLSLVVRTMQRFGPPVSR
UniProt O95239: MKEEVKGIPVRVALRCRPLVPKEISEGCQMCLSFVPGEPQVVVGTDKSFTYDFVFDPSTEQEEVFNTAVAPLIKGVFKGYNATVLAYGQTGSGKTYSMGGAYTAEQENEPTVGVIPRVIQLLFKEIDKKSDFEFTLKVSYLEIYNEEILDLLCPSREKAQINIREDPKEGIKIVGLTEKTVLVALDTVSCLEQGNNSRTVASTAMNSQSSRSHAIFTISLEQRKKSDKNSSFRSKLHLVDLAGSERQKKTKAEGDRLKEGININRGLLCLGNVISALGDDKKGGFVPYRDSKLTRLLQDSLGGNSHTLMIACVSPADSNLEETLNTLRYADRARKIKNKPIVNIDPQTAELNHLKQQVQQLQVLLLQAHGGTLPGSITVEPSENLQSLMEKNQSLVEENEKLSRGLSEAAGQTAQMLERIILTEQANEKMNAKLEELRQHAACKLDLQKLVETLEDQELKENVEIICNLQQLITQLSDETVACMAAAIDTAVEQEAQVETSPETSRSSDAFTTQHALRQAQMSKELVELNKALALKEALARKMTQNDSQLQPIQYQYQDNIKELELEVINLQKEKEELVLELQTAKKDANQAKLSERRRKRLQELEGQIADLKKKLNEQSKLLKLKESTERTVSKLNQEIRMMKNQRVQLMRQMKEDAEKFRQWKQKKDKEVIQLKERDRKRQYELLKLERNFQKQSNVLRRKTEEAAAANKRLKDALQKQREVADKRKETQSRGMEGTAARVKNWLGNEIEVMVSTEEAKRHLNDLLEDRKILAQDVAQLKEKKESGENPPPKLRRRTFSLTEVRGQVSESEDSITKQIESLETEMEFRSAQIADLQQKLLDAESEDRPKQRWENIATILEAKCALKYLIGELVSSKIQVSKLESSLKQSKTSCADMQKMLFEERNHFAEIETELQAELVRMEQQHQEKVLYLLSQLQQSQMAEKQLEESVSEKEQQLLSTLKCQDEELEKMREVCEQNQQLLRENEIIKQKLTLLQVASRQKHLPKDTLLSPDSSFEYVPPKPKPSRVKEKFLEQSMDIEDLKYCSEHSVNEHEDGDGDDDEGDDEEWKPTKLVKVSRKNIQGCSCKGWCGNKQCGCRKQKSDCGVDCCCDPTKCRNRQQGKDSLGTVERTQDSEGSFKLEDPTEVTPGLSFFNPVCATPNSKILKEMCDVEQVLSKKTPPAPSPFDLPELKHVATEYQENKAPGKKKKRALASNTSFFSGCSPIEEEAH
UniProt Q6IAA8, whole entry, looked up: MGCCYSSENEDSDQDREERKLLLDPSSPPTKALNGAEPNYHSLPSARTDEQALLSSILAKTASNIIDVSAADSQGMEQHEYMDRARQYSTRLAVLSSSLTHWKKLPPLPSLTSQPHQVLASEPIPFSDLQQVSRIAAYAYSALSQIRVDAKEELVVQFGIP

What was measured:
Assay in all cases: log2 fold change, soluble protein after heating vs DMSO (PISA); higher = thermal stabilisation; K562 lysate, 10 uM; active = over 0.2 and 3.5 SD of the protein, either way, in both replicates (recomputed)
alvocidib = compound: CN1CC[C@H](c2c(O)cc(O)c3c(=O)cc(-c4ccccc4Cl)oc23)[C@H](O)C1 [alvocidib]
Summary of the method: (§1)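 Thermal stability, expressed as log-two fold change relative to solvent controls, is given from duplicates. Crude K562 extract in PBS pH 7.4 with 1 mM MgCl2, at 1 mg/mL protein, was treated with 10 μM compound for 30 min and heated in aliquots for 3 min across 48°C-58°C. After pooling, adjustment to 0.5% NP-40 at 4°C and centrifugation at 21,000xg for 90 min, supernatant protein was measured by TMTpro 16plex LC-MS/MS with channel sums equalised.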

Tubastatin A = compound: CN1CCc2c(c3ccccc3n2Cc2ccc(C(=O)NO)cc2)C1 [Tubastatin A]
Summary of the method: as §1

[1] = compound: CNC(=O)C1=CC=CC=C1NC2=NC(=NC=C2Cl)NC3=C(C=C(C=C3)N4CCOCC4)OC
Summary of the method: as §1

defactinib = compound: CNC(=O)c1ccc(Nc2ncc(C(F)(F)F)c(NCc3nccnc3N(C)S(C)(=O)=O)n2)cc1 [defactinib]
Summary of the method: as §1

[2] = compound: CNc1nc(-c2ccc3c(N)n[nH]c3c2)cc(N2C[C@@H](C(=O)NC3CCCCC3)CC[C@H]2C)n1
Summary of the method: as §1

encorafenib = compound: COC(=O)N[C@@H](C)CNc1nccc(-c2cn(C(C)C)nc2-c2cc(Cl)cc(NS(C)(=O)=O)c2F)n1 [encorafenib]
Summary of the method: as §1

[3] = compound: COC(=O)[C@H](CCSC)NC(=O)C1=C(C=C(C=C1)NC[C@H](CS)N)C2=CC=CC=C2
Summary of the method: as §1

alisertib = compound: COc1cc(Nc2ncc3c(n2)-c2ccc(Cl)cc2C(c2c(F)cccc2OC)=NC3)ccc1C(=O)O [alisertib]
Summary of the method: as §1

[4] = compound: COc1cc2nc(-c3cc(F)ccc3O)nc(N[C@@H]3CNC[C@H]3C(C)(C)O)c2cc1OC
Summary of the method: as §1

gefitinib = compound: COc1cc2ncnc(Nc3ccc(F)c(Cl)c3)c2cc1OCCCN1CCOCC1 [gefitinib]
Summary of the method: as §1

lapatinib = compound: CS(=O)(=O)CCNCc1ccc(-c2ccc3ncnc(Nc4ccc(OCc5cccc(F)c5)c(Cl)c4)c3c2)o1 [lapatinib]
Summary of the method: as §1

pictilisib = compound: CS(=O)(=O)N1CCN(Cc2cc3nc(-c4cccc5[nH]ncc45)nc(N4CCOCC4)c3s2)CC1 [pictilisib]
Summary of the method: as §1

crizotinib = compound: C[C@@H](Oc1cc(-c2cnn(C3CCNCC3)c2)cnc1N)c1c(Cl)ccc(F)c1Cl [crizotinib]
Summary of the method: as §1

[5] = compound: C[C@H](C1=CC=C(C=C1)C(=O)NC2=C3C=CNC3=NC=C2)N
Summary of the method: as §1

duvelisib = compound: C[C@H](Nc1ncnc2nc[nH]c12)c1cc2cccc(Cl)c2c(=O)n1-c1ccccc1 [duvelisib]
Summary of the method: as §1

gandotinib = compound: Cc1cc(Nc2cc(CN3CCOCC3)c3nc(C)c(Cc4ccc(Cl)cc4F)n3n2)n[nH]1 [gandotinib]
Summary of the method: as §1

tozasertib = compound: Cc1cc(Nc2cc(N3CCN(C)CC3)nc(Sc3ccc(NC(=O)C4CC4)cc3)n2)n[nH]1 [tozasertib]
Summary of the method: as §1

doramapimod = compound: Cc1ccc(-n2nc(C(C)(C)C)cc2NC(=O)Nc2ccc(OCCN3CCOCC3)c3ccccc23)cc1 [doramapimod]
Summary of the method: as §1

bafetinib = compound: Cc1ccc(NC(=O)c2ccc(CN3CC[C@H](N(C)C)C3)c(C(F)(F)F)c2)cc1Nc1nccc(-c2cncnc2)n1 [bafetinib]
Summary of the method: as §1

[6] = compound: Cc1cccc(CC(=O)N2CCc3c2ccc(-c2cn(C)c4ncnc(N)c24)c3F)n1
Summary of the method: as §1

Target	log2 fold change (alvocidib)	log2 fold change (Tubastatin A)	log2 fold change [1]	log2 fold change (defactinib)	log2 fold change [2]	log2 fold change (encorafenib)	log2 fold change [3]	log2 fold change (alisertib)	log2 fold change [4]	log2 fold change (gefitinib)	log2 fold change (lapatinib)	log2 fold change (pictilisib)	log2 fold change (crizotinib)	log2 fold change [5]	log2 fold change (duvelisib)	log2 fold change (gandotinib)	log2 fold change (tozasertib)	log2 fold change (doramapimod)	log2 fold change (bafetinib)	log2 fold change [6]
LANCL2 (UniProt Q9NS86)	inactive: -0.004	inactive: 0.009	inactive: 0.032	inactive: 0.014	inactive: 0.02	inactive: 0.053	inactive: -0.015	inactive: -0.011	inactive: 0.029	inactive: -0.04	inactive: -0.002	inactive: 0.004	inactive: -0.01	inactive: 0.057	inactive: -0.007	inactive: -0.027	inactive: -0.008	inactive: 0.003	inactive: 0.017	inactive: -0.028
KIF23 isoform 2 (UniProt Q02241)	inactive: -0.015	inactive: -0.096	inactive: -0.007	inactive: 0.101	inactive: 0.041	inactive: -0.008	inactive: -0.026	inactive: -0.07	inactive: -0.047	inactive: -0.008	inactive: -0.017	inactive: 0.052	inactive: -0.002	inactive: -0.019	inactive: -0.019	inactive: -0.007	inactive: -0.027	inactive: 0.019	inactive: -0.011	inactive: 0.013
KNTC1 (UniProt P50748)	inactive: -0.012	inactive: -0.05	inactive: 0.006	inactive: 0.014	inactive: -0.053	inactive: 0.028	inactive: 0.004	inactive: 0.024	inactive: 0.002	inactive: 0.028	inactive: -0.039	inactive: -0.029	inactive: -0.098	inactive: -0.034	inactive: 0.002	inactive: -0.048	inactive: 0.033	inactive: 0.028	inactive: -0.076	inactive: 0.075
KLHL11 (UniProt Q9NVR0)	inactive: -0.028	inactive: -0.122	inactive: -0.011	inactive: 0.001	inactive: -0.184	inactive: 0.058	inactive: 0.076	inactive: -0.008		inactive: 0.036		inactive: -0.108	inactive: -0.023	inactive: -0.09	inactive: 0.061	inactive: 0.013	inactive: -0.047	inactive: -0.033	inactive: 0.008	inactive: 0.127
KLHL7 (UniProt Q8IXQ5)	inactive: 0.187	inactive: -0.036	inactive: 0.038	inactive: -0.17	inactive: 0.107	inactive: 0.093	inactive: 0.065	inactive: -0.032	inactive: 0.029	inactive: -0.026	inactive: 0.055		inactive: 0.058	inactive: -0.052	inactive: 0.037	inactive: -0.064	inactive: 0.058	inactive: -0.075		inactive: -0.067
LAMTOR2 (UniProt Q9Y2Q5)	inactive: -0.008	inactive: 0.059	inactive: -0.028	inactive: 0.008	inactive: 0.057	inactive: 0.001	inactive: -0.006	inactive: 0.057	inactive: -0.045	inactive: -0.009	inactive: 0.046	inactive: -0.071	inactive: -0.067	inactive: -0.108	inactive: 0.018	inactive: 0.01	inactive: 0.028	inactive: 0.033	inactive: -0.12	inactive: 0.128
KNSTRN (UniProt Q9Y448)	inactive: 0.001	inactive: -0.062	inactive: 0.038	inactive: -0.029	inactive: 0.053	inactive: 0.074	active: -0.264	inactive: 0.043	inactive: -0.016	inactive: -0.022	inactive: 0.013	inactive: 0.05	inactive: 0.029	inactive: 0.065	inactive: -0.009	inactive: -0.024	inactive: 0.026	inactive: -0.052	inactive: 0.024	inactive: -0.056
KTN1 (UniProt Q86UP2)	inactive: -0.001	inactive: 0.007	inactive: -0.003	inactive: -0.014	inactive: 0.016	inactive: 0.004	inactive: 0.041	inactive: 0	inactive: 0.003	inactive: 0.006	inactive: -0.01	inactive: -0.02	inactive: 0.008	inactive: -0.011	inactive: 0.001	inactive: -0.036	inactive: 0.012	inactive: -0.013	inactive: -0.008	inactive: 0.024
KRAS (UniProt P01116)	inactive: -0.071	inactive: 0.059	inactive: -0.048	inactive: -0.01	inactive: -0.005	inactive: 0.01	inactive: 0.043	inactive: -0.016	inactive: -0.042	inactive: 0.139	inactive: 0.019		inactive: 0.017	inactive: -0.078	inactive: 0.001	inactive: 0.044	inactive: -0.013	inactive: 0.006		inactive: 0.145
KIF3C (UniProt O14782)	inactive: 0.033	inactive: -0.018	inactive: -0.01	inactive: 0.157	inactive: 0.058	inactive: 0.101	inactive: 0.024	inactive: 0.247	inactive: 0.07	inactive: -0.029	inactive: -0.172		inactive: -0.177	inactive: -0.119	inactive: 0	inactive: -0.002	inactive: -0.394	inactive: -0.031		inactive: 0.152
KDM4A (UniProt O75164)	inactive: -0.022	inactive: -0.093	inactive: 0.064	inactive: -0.027	inactive: -0.029	inactive: 0.021	inactive: 0.053	inactive: 0.026		inactive: 0.012		inactive: -0.043	inactive: 0.011	inactive: -0.06	inactive: -0.014	inactive: -0.015	inactive: 0.023	inactive: 0.016	inactive: -0.014	inactive: 0.056
LAGE3 (UniProt Q14657)	inactive: -0.013	inactive: 0.004	inactive: -0.001	inactive: -0.194	inactive: -0.035	inactive: 0.047	inactive: -0.076	inactive: 0.224	inactive: -0.042	inactive: 0.107	inactive: 0.002	inactive: -0.032	inactive: -0.014	inactive: 0.04	inactive: -0.12	inactive: -0.013	inactive: 0.043	inactive: 0.009	inactive: 0.084	inactive: 0.013
KIF26A (UniProt Q9ULI4)	inactive: 0.022	active: 0.566	inactive: -0.149	inactive: -0.105	inactive: -0.021	inactive: -0.052	inactive: 0.035	inactive: 0.004		inactive: 0.056		inactive: 0.039	inactive: 0.013	inactive: -0.065	inactive: -0.017	inactive: 0.003	inactive: 0.086	inactive: -0.002	inactive: -0.055	inactive: 0.002
KIF4A (UniProt O95239)	inactive: 0.006	inactive: -0.145	inactive: 0.022	inactive: 0.006	inactive: 0.005	inactive: -0.014	inactive: 0.154	inactive: -0.041	inactive: -0.035	inactive: -0.018	inactive: 0.007	inactive: -0.002	inactive: -0.043	inactive: 0.012	inactive: -0.029	inactive: -0.061	inactive: 0.021	inactive: 0	inactive: -0.066	inactive: -0.006
LAMTOR1 (UniProt Q6IAA8)	inactive: 0.052	inactive: 0.057	inactive: 0.062	inactive: 0.105	inactive: 0.048	inactive: 0.015	inactive: -0.018	inactive: -0.028	inactive: -0.036	inactive: -0.06	inactive: 0.034	inactive: 0.014	inactive: 0.007	inactive: 0.023	inactive: 0.021	inactive: -0.012	inactive: 0.038	inactive: -0.086	inactive: -0.048	inactive: 0.004
LAMTOR4 (UniProt Q0VGL1)	inactive: 0	inactive: 0.081	inactive: -0.009	inactive: 0.001	inactive: 0.041	inactive: 0.035	inactive: -0.029	inactive: 0.066	inactive: 0.014	inactive: 0.013	inactive: -0.015	inactive: 0	inactive: -0.018	inactive: -0.08	inactive: 0.013	inactive: 0.031	inactive: -0.043	inactive: 0.008	inactive: -0.043	inactive: 0.147

Quoted from the listing:
KLHL7 (UniProt Q8IXQ5) – log2 fold change (tozasertib): inactive: 0.058
KIF23 isoform 2 (UniProt Q02241) – log2 fold change (tozasertib): inactive: -0.027
